The list shows a part of the results.

By UniProt entry, the sequences of proteins in these tests, tags left out. Where a name states a change or a piece, a line headed by the entry shows the natural chain unless it says otherwise.
UniProt Q9Y240: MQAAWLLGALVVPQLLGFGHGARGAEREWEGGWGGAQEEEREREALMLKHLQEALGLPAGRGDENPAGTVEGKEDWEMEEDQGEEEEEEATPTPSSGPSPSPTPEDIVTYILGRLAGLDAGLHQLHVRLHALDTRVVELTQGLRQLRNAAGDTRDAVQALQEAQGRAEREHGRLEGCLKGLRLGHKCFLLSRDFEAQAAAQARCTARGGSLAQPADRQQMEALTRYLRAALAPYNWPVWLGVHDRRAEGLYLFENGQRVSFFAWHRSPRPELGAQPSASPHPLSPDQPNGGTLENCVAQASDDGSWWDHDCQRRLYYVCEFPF
UniProt Q9BSY4: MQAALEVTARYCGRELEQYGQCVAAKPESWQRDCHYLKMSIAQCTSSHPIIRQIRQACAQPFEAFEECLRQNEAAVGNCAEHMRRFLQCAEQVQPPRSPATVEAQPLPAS
UniProt P51795: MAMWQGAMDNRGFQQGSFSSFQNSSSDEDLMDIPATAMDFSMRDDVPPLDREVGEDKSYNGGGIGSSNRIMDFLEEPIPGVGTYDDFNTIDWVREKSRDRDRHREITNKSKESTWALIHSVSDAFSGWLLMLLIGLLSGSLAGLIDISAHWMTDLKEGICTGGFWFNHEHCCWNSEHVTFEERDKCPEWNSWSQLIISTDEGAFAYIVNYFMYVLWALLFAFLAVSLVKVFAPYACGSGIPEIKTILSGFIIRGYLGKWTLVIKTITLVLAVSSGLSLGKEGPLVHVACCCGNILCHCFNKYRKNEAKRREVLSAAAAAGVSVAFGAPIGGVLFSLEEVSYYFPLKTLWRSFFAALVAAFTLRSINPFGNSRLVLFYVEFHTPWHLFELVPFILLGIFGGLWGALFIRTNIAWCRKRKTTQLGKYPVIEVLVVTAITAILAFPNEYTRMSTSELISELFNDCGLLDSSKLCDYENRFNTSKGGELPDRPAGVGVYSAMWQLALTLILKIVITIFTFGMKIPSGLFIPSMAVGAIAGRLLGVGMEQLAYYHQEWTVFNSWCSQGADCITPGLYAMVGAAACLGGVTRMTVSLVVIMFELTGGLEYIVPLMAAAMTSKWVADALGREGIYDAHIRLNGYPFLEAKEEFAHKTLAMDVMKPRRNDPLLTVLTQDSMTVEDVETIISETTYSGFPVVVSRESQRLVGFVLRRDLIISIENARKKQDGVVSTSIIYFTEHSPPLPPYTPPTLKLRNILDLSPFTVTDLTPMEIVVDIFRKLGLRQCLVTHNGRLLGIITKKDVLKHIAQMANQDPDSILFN
UniProt Q9BW66: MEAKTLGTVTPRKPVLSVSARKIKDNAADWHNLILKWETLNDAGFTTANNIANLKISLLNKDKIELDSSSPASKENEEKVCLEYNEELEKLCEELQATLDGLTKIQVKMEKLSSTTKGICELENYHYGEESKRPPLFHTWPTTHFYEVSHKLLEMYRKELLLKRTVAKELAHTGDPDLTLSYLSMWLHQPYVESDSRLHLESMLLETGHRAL
UniProt Q9NSE2: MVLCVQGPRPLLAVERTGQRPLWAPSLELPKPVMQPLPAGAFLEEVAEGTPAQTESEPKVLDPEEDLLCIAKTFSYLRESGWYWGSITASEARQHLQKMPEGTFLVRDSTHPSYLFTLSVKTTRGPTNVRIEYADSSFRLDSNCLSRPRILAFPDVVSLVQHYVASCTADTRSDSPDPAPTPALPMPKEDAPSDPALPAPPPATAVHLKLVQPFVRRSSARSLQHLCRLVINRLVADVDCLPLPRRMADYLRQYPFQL
UniProt O14647: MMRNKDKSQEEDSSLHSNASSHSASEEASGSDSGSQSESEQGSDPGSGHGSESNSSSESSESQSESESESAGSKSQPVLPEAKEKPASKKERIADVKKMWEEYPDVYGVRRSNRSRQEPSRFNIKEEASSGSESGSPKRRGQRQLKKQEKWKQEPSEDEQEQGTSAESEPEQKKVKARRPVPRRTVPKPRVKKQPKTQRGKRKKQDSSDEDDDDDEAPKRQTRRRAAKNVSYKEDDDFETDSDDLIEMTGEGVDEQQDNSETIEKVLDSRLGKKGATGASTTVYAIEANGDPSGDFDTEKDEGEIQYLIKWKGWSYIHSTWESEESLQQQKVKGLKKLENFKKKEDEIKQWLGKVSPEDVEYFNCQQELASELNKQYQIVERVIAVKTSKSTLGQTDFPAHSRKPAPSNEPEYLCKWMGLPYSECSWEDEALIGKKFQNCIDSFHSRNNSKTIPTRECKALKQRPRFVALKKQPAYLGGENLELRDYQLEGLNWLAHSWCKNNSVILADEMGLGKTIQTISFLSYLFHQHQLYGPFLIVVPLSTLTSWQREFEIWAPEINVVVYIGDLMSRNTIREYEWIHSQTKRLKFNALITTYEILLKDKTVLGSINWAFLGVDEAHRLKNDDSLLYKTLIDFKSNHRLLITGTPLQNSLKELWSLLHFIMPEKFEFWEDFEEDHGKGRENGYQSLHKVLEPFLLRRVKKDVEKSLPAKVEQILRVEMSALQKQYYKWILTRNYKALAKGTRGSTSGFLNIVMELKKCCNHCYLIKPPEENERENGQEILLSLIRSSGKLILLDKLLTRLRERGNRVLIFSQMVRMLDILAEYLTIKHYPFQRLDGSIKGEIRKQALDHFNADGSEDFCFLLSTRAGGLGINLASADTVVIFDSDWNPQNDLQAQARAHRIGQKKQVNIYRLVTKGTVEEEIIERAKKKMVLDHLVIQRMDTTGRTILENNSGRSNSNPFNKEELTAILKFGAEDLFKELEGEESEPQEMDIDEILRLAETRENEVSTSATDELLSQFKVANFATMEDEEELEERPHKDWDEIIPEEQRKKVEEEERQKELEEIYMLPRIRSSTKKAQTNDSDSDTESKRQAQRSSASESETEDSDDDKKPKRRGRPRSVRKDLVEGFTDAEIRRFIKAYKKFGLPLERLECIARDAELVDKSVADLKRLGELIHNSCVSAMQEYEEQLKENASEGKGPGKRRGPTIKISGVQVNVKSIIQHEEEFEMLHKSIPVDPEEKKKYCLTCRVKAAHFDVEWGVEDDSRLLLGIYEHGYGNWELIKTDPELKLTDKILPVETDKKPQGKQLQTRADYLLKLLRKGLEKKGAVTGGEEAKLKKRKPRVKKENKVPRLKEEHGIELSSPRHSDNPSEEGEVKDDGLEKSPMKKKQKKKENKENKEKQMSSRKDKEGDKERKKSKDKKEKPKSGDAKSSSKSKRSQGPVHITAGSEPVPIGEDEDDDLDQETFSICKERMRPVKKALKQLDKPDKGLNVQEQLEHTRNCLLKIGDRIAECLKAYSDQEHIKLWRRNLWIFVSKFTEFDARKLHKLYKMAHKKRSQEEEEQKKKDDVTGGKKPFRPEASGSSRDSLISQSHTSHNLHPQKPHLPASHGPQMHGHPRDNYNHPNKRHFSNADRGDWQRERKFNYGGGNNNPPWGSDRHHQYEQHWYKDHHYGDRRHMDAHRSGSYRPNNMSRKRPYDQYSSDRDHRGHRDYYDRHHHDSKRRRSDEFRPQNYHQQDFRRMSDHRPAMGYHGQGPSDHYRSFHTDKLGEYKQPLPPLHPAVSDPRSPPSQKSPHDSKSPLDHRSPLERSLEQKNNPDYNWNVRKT
UniProt Q5VXU3: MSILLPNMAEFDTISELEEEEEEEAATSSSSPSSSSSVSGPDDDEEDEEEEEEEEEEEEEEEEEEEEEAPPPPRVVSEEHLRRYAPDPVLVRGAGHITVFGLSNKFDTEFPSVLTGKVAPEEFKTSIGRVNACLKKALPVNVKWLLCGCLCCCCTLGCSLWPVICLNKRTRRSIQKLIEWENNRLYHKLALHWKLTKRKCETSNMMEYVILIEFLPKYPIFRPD
UniProt O75122: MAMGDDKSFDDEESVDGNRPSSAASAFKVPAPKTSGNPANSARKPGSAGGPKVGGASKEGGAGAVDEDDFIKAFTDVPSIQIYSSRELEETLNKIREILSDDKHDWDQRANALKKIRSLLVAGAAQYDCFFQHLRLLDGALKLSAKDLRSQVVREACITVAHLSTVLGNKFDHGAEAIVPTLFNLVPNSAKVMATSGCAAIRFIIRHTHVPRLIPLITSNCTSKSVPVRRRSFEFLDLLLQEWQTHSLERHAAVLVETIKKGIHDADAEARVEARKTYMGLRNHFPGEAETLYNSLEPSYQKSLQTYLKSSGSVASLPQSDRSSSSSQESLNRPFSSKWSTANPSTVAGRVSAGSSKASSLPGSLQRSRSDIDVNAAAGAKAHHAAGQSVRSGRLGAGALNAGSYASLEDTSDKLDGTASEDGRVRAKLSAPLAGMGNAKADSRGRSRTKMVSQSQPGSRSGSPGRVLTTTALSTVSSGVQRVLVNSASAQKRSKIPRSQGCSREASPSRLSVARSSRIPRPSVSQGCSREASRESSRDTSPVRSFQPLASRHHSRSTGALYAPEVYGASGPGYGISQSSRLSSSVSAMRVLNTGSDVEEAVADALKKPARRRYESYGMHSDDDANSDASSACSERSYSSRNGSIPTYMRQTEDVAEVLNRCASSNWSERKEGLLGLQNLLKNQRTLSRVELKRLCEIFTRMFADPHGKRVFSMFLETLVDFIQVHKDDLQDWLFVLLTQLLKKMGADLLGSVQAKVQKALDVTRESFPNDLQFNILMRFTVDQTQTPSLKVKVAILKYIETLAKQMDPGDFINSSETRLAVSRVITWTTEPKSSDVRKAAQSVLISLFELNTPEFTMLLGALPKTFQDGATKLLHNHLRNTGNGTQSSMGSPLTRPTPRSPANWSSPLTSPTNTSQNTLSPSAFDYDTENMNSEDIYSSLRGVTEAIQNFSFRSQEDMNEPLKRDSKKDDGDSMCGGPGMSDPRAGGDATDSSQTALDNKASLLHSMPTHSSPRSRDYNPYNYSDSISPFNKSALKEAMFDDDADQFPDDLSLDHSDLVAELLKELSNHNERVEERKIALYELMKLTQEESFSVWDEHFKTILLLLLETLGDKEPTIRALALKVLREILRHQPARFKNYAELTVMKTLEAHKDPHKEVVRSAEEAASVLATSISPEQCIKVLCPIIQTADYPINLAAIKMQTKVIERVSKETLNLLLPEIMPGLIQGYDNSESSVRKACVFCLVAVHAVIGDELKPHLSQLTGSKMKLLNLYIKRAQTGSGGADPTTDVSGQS
UniProt P33552, whole entry, looked up: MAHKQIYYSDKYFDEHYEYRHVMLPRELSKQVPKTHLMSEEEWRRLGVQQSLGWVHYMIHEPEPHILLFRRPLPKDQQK
UniProt Q8N0X4: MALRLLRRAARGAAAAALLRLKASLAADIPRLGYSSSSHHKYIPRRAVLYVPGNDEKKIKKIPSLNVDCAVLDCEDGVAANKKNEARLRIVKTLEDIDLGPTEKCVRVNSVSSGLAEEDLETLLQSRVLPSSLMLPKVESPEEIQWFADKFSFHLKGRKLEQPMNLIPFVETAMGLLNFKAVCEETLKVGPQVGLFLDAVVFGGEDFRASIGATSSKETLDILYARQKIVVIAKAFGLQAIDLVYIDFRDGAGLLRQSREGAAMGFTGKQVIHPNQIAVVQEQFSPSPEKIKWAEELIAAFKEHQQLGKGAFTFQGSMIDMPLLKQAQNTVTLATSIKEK
UniProt Q14677: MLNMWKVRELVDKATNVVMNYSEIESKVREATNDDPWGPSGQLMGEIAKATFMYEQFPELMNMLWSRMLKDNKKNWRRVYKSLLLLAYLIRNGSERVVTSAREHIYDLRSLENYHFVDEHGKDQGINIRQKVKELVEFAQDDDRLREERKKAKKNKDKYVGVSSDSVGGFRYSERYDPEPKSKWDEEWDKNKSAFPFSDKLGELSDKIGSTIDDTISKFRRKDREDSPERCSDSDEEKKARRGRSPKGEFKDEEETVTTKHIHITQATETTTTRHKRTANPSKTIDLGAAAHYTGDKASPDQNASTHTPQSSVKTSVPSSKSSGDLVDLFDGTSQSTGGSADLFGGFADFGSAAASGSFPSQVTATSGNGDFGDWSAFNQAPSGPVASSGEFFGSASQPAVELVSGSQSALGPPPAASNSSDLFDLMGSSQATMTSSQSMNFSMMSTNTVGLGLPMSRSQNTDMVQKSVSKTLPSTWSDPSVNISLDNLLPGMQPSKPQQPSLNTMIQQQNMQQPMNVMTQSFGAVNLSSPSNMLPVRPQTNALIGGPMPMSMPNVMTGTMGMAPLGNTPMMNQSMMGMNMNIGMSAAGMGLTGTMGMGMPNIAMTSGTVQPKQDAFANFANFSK
UniProt Q15846: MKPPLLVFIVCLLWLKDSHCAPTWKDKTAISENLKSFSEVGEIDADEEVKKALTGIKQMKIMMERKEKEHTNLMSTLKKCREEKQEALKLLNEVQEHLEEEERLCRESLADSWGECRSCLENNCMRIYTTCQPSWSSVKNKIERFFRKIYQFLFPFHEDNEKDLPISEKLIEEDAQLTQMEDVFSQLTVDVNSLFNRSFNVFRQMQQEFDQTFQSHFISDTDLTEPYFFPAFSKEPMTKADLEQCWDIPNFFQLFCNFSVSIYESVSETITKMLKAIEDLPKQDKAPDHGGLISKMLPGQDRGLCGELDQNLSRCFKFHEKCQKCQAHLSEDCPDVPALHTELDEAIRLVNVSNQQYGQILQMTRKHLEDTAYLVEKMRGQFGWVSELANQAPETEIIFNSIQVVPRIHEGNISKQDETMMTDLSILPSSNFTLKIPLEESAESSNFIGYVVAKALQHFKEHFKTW

Compound in the first assay: C#Cc1cccc(Nc2ncnc3cc(OCCOC)c(OCCOC)cc23)c1 [erlotinib]
Put plainly: log2 fold change, soluble protein after heating vs DMSO (PISA); higher = thermal stabilisation; K562 lysate, 10 uM; active = over 0.2 and 3.5 SD of the protein, either way, in both replicates (recomputed). The essentials:
(§1)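 Following dounce homogenisation of K562 pellets in PBS pH 7.4 with 1 mM MgCl2, crude extract at 1 mg/mL protein was incubated for 30 min with 10 μM compound. Aliquots were then heated for 3 min over 48°C-58°C and pooled, NP-40 was added to 0.5% at 4°C, and soluble protein was recovered as the supernatant at 21,000xg for 90 min. Channel-sum-equalised TMTpro 16plex LC-MS/MS quantified this protein. Each value, from duplicates, is a log-two fold change in thermal stability relative to solvent controls.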
As to CMC4 (UniProt P56277), the log2 fold change is inactive: -0.027.

For the target CHTF18 (UniProt Q8WVB6), the log2 fold change is inactive: -0.031.

Regarding CLEC11A (UniProt Q9Y240), the log2 fold change was inactive: -0.006.

In the case of CHCHD5 (UniProt Q9BSY4), the log2 fold change was inactive: -0.039.

Turning to CLCN5 isoform 2 (UniProt P51795), the log2 fold change is inactive: -0.026.

Regarding CITED2 (UniProt Q99967), the log2 fold change is inactive: 0.235.

Take CLSTN3 isoform 2 (UniProt Q9BQT9): the log2 fold change was inactive: -0.018.

Compound in the next assay: C/C(=N\NC(=O)C1=CC(=CC=C1)S(=O)(=O)N2CCOCC2)/C3=C(C=CC(=C3)Cl)O
The assay is described as above. The essentials:
as §1
For CINP isoform 3 (UniProt Q9BW66), the log2 fold change was inactive: 0.016.

As for CISH isoform 3 (UniProt Q9NSE2), the log2 fold change is inactive: -0.018.

For the target CLIP1, A0A3B3ITA2, the log2 fold change was inactive: 0.025.

CHD2 (UniProt O14647): the log2 fold change is inactive: 0.003.

Turning to CHIC1 (UniProt Q5VXU3), the log2 fold change was inactive: -0.078.

Turning to CLASP2 (UniProt O75122), the log2 fold change was inactive: -0.114.

Regarding CKS2 (UniProt P33552), the log2 fold change was inactive: 0.06.

In the case of CLYBL (UniProt Q8N0X4), the log2 fold change is inactive: 0.114.

Consider CHCHD7 isoform 4 (UniProt Q9BUK0), for which the log2 fold change is inactive: -0.158.

With CLINT1 (UniProt Q14677), the log2 fold change was inactive: -0.111.

Turning to CHD6 (UniProt Q8TD26), the log2 fold change was inactive: -0.3.

Regarding CLUL1 (UniProt Q15846), the log2 fold change is inactive: 1.3.

Compound in a further assay: C1=CC(=CC=C1C2=NC3=C(N2)C=C(C=C3)C(=O)N)OC4=CC=C(C=C4)Cl
The assay is described as above. The essentials:
as §1
As for CMC4 (UniProt P56277), the log2 fold change was inactive: 0.037.

Take CHTF18 (UniProt Q8WVB6): the log2 fold change is inactive: -0.059.

For the target CLEC11A (UniProt Q9Y240), the log2 fold change is inactive: -0.183.

In the case of CHCHD5 (UniProt Q9BSY4), the log2 fold change was inactive: -0.001.

On to CLCN5 isoform 2 (UniProt P51795), for which the log2 fold change was inactive: 0.019.

CITED2 (UniProt Q99967): the log2 fold change was inactive: -0.031.

As for CLSTN3 isoform 2 (UniProt Q9BQT9), the log2 fold change was inactive: 0.003.

Compound in a further assay: C1=CC2=C(C=CC(=C2)/C=C\3/C(=O)NC(=NCC4=CC=CS4)S3)N=C1
The assay is described as above. The essentials: as §1
Turning to CINP isoform 3 (UniProt Q9BW66), the log2 fold change is inactive: 0.015.

As to CISH isoform 3 (UniProt Q9NSE2), the log2 fold change is inactive: 0.12.

For CLIP1, A0A3B3ITA2, the log2 fold change was inactive: 0.004.

Regarding CHD2 (UniProt O14647), the log2 fold change was inactive: 0.309.

Take CHIC1 (UniProt Q5VXU3): the log2 fold change was inactive: -0.044.

Turning to CLASP2 (UniProt O75122), the log2 fold change is inactive: 0.12.

Regarding CKS2 (UniProt P33552), the log2 fold change is inactive: 0.038.

For CLYBL (UniProt Q8N0X4), the log2 fold change is inactive: -0.088.

CHCHD7 isoform 4 (UniProt Q9BUK0): the log2 fold change was inactive: 0.048.

CLINT1 (UniProt Q14677): the log2 fold change was inactive: 0.095.

Turning to CHD6 (UniProt Q8TD26), the log2 fold change was inactive: -0.097.

With CLUL1 (UniProt Q15846), the log2 fold change was inactive: 0.053.

These data come from the supplement of paper PMC10849652.
